Our source for the binding values is PMC12116906.

The chains behind the UniProt entries cited, without tags or fusion partners.
UniProt P09216: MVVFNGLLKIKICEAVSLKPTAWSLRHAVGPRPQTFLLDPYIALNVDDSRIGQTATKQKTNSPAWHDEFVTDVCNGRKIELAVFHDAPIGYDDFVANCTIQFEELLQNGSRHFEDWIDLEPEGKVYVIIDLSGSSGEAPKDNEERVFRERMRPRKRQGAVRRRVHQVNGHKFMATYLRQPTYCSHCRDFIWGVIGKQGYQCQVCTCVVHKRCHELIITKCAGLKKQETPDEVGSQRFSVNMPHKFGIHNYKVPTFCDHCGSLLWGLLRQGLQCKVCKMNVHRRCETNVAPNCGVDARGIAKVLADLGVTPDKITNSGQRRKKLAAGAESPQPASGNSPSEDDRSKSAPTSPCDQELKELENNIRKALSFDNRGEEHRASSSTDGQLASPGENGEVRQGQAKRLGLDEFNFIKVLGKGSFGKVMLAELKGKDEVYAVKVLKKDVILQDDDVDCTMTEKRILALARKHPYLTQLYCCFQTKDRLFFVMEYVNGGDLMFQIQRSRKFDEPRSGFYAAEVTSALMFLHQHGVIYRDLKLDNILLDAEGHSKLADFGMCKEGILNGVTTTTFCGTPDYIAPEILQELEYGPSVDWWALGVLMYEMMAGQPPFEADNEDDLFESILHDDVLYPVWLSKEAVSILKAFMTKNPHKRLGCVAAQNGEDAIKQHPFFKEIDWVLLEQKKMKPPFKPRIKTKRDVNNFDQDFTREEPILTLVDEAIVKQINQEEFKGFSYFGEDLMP

Results are given in words; binding and its absence hold for the method and conditions named. Binding seen in cells or lysates may run through a third protein. Some binding calls cover weakened binding; strength is not graded here.

The target of the experiment is protein kinase C epsilon (rat (endogenous in neonatal rat ventricle cardiomyocytes)) (UniProt P09216). Nature of the experiment: co-IP; endogenous proteins; 100 µg of NRVM cell homogenate protein incubated with anti-PKC-ε antibody or control IgG for 16 h at 4 °C, True-Blot IP beads for 2 h, washed three times with lysis buffer; SIRT1 detected by Western blot; cells untreated or treated with 1 µM DOX for 24 h (less SIRT1 in the precipitate after DOX).

B1: sirtuin-1 (enzyme, UniProt A0A0G2JZ79 1-741)
chain: MADEAALALQAGGSPSAAAAMEAASQPADEPLRKRPRRDGPGLGRSPGEPSAAAAAAAAAAGCEAASAAAPAALWREAAGAAAASAEREAPATAAAGDGDNGPGLRREPRAADDFDDDEGEEEDEAAAAAAAAIGYRDNLLLADEIITNGFHSCESDDDDRASHASSSDWTPRPRIGPYTFVQQHLMIGTDPRTILKDLLPETIPPPELDDMTLWQIVINILSEPPKRKKRKDINTIEDAVKLLQECKKIIVLTGAGVSVSCGIPDFRSRDGIYARLAVDFPDLPDPQAMFDIEYFRKDPRPFFKFAKEIYPGQFQPSLCHKFIALSDKEGKLLRNYTQNIDTLEQVAGIQRIIQCHGSFATASCLICKYKVDCEAVRGDIFNQVVPRCPRCPADEPLAIMKPEIVFFGENLPEQFHRAMKYDKDEVDLLIVIGSSLKVRPVALIPSSIPHEVPQILINREPLPHLHFDVELLGDCDVIINELCHRLGGEYAKLCCNPVKLSEITEKPPRTQKELVHLSELPPTPLHISEDSSSPERTVPQDSSVIATLVDQTIKNKVDDLEVSEPKSCVEEKSQEVQTYRNVESINVENPDFKAVGSSTGDKNERTSVAETVRKCWPNRLAKEQISKRLDGNQYLFVPPNRYIFHGAEVYSDSEDDALSSSSCGSNSDSGTCQSPSLEEPLEDESEIEEFYNGLEDDADRPECAGGSGADGGDQEAVNEAIAMKQELTDVNCTPDKSEHY
Turning to B1, the binding entry is given as “binds”.
